The source of these data is publication PMC8113518, “JRAB/MICAL-L2 undergoes liquid–liquid phase separation to form tubular recycling endosomes” (Communications Biology, 2021).

The chains behind the UniProt entries cited, without tags or fusion partners. Where a name states a change or a piece, a line headed by the entry shows the natural chain unless it says otherwise. A line that says so, or that is headed by a name, gives the form on record, which may keep a tag or linker. Residues count along the entry.
UniProt P55258: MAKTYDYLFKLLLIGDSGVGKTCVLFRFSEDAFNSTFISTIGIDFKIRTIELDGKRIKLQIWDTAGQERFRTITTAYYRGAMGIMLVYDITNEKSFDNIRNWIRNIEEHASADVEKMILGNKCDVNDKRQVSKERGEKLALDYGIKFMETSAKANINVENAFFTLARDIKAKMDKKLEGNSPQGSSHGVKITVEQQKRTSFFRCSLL
GFP-Rab8ADA (P55258, form named): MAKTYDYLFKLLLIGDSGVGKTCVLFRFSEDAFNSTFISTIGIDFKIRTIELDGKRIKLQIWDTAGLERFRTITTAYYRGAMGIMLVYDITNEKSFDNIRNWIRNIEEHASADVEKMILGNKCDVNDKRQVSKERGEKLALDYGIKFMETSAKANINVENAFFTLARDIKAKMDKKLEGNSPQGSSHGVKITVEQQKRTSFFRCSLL
GFP-Rab8ADAΔC3 (aa 1-190) (P55258, form named): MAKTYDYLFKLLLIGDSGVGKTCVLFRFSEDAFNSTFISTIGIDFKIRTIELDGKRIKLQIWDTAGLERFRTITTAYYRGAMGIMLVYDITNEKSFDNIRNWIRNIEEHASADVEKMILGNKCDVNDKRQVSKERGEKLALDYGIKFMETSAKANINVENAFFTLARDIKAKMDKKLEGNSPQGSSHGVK
UniProt Q3TN34: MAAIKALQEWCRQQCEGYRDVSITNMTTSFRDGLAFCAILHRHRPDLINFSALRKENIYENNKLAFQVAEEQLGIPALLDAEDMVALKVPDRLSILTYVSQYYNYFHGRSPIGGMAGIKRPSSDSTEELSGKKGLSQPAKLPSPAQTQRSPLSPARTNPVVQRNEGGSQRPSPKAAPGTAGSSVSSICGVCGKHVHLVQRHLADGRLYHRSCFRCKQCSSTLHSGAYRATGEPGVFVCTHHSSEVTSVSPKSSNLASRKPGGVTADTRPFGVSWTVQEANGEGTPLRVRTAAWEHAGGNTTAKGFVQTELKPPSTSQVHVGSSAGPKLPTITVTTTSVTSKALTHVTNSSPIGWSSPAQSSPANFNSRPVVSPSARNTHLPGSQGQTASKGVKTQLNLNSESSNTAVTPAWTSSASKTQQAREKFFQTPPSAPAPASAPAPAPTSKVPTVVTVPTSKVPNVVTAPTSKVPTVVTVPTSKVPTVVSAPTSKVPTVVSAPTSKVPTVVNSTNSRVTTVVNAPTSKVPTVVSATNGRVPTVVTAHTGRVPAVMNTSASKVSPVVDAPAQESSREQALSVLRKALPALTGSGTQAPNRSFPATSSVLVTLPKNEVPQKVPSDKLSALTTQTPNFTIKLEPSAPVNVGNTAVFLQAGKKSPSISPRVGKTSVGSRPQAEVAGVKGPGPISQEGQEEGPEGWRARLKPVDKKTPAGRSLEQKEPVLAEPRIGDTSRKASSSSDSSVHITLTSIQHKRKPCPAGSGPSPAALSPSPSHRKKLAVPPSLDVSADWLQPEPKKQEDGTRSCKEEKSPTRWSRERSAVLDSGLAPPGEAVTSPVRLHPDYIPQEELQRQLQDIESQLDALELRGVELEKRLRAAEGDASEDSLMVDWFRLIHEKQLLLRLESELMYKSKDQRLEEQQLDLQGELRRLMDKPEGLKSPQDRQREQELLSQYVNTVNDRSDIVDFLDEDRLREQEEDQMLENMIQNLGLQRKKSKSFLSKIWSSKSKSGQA
GFP-JRAB-C (aa 806-1009): residues 806-1009 of Q3TN34
GST-JRAB-CC4 (aa 840-930): residues 840-930 of Q3TN34

Experiment [1] has as its target HA-Rab8A dominant-active (DA) mutant (Q67L) (mouse) (UniProt P55258). The experiment is described as follows: co-IP; HEK293 lysates; anti-HA antibody (12CA5) on Protein G beads; buffer A, 90 min, 4 °C; western blot.
In experiment [2] the target is GST-JRAB-C (mouse) (UniProt Q3TN34). The experiment is described as follows: pull-down; purified GST-JRAB-C on glutathione-Sepharose beads; HEK293 lysates with GFP-tagged Rab8ADA, Rab13DA, truncation or chimeric variants; buffer A, 90 min, 4 °C; western blot with anti-GFP; only the target purified.
Experiment [3] addresses GST-JRAB-CC4 (aa 840-930) (mouse) (UniProt Q3TN34). The experiment is described as follows: pull-down; purified GST-JRAB-CC4 (aa 840-930) on glutathione-Sepharose beads; HEK293 lysates with Myc-JRAB and HA-Rab13DA, HA-Rab8ADA or HA; buffer A, 90 min, 4 °C; western blot with anti-Myc; only the target purified.
For experiment [4], the target named is GST-JRAB-C (mouse) (UniProt Q3TN34). The experiment is described as follows: pull-down; purified GST-JRAB-C on glutathione-Sepharose beads; HEK293 lysates with GFP-tagged Rab8ADA, Rab13DA, truncation or chimeric variants; buffer A, 90 min, 4 °C; western blot with anti-GFP; only the target purified. This is another data set of the same source.
In experiment [5] the target is GFP-JRAB-C (aa 806-1009) (mouse) (UniProt Q3TN34). The experiment is described as follows: pull-down; purified GST-JRAB-CH+LIM on glutathione-Sepharose beads; lysates of HEK293 cells co-expressing GFP-JRAB-C with an HA-tagged Rab (Rab13DA, Rab8ADA, Rab13DA-C8A, Rab8ADA-C13) or HA; buffer A (10 mM Tris-HCl pH 8.0, 1 mM EDTA, 1% NP-40, 150 mM NaCl, 5 mM MgCl2), 90 min, 4 °C; western blot with anti-GFP; only the target purified.

Read-outs that look alike come from different tables or passages of the source. Results are given in words; binding and its absence hold for the method and conditions named. Binding seen in cells or lysates may run through a third protein. Some results given as binding are weak or reduced against the parent protein; the word gives no strength. For part of these data: Where a sequence is shown, tags or fusion partners need not be part of it.

Turning to “GFP-JRAB/MICAL-L2 (full length) (from UniProt Q3TN34 1-1009)”, the binding result in experiment [1] is recorded as “binds”.
In the case of GFP-Rab8ADA (from UniProt P55258 1-207), in the experiment with GST-JRAB-C (mouse) [2], the binding entry was “binds”.
Consider “GFP-Rab8ADAΔC3 (aa 1-190) (from UniProt P55258 1-190) (domain or fragment)”, for which the binding entry in the experiment with GST-JRAB-C (mouse) [2] is given as “binds”.
For the molecule “Myc-JRAB/MICAL-L2 (full length) (from UniProt Q3TN34 1-1009)”, the binding entry in experiment [3] is “binds”.

B1: GFP-Rab13DA (protein, UniProt Q9DD03 1-202)
chain: MAKAYDHLFKLLLIGDSGVGKTCLIIRFAEDNFNSTYISTIGIDFKIRTVDIEGKRIKLQVWDTAGLERFKTITTAYYRGAMGIILVYDITDEKSFENIQNWMKSIKENASAGVERLLLGNKCDMEAKRQVQREQAEKLAREHRIRFFETSAKSSVNVDEAFSSLARDILLKTGGRRSGTNSKPSSTGLKTSDKKKNKCLLG
On to B1, for which the binding entry with GST-JRAB-C (mouse) [4] is on record as “binds”.

B2: HA-Rab13DA (Q67L) (protein, UniProt Q9DD03 1-202)
chain: MAKAYDHLFKLLLIGDSGVGKTCLIIRFAEDNFNSTYISTIGIDFKIRTVDIEGKRIKLQVWDTAGLERFKTITTAYYRGAMGIILVYDITDEKSFENIQNWMKSIKENASAGVERLLLGNKCDMEAKRQVQREQAEKLAREHRIRFFETSAKSSVNVDEAFSSLARDILLKTGGRRSGTNSKPSSTGLKTSDKKKNKCLLG
Regarding B2, in experiment [5], the binding result is listed as “binds”.
